Laboratory results published in the supplement of paper PMC7666118.
The other results are listed elsewhere or left out.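 How the source made its calls: active = dose-dependent thermal stabilisation significant by F-test of dose-response against flat model at 10% FDR; inactive = not significant.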

Sequences of proteins named here, by UniProt entry; tags and fusion partners are left off. A change or cut given only in a name is not applied to a line headed by its entry.
UniProt Q9BQE3, whole entry: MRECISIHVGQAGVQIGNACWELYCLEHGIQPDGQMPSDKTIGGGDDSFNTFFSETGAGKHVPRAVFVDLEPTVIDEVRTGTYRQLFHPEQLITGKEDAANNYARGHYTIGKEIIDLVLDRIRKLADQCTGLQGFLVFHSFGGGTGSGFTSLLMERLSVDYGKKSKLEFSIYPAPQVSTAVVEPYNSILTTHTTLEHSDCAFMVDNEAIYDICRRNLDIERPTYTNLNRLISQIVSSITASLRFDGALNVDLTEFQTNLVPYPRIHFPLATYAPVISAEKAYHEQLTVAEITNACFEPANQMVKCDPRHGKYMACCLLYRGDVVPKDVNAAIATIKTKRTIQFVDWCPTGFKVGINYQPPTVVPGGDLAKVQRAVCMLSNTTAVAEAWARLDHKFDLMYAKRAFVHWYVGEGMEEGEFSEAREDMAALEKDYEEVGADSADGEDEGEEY
UniProt O60343: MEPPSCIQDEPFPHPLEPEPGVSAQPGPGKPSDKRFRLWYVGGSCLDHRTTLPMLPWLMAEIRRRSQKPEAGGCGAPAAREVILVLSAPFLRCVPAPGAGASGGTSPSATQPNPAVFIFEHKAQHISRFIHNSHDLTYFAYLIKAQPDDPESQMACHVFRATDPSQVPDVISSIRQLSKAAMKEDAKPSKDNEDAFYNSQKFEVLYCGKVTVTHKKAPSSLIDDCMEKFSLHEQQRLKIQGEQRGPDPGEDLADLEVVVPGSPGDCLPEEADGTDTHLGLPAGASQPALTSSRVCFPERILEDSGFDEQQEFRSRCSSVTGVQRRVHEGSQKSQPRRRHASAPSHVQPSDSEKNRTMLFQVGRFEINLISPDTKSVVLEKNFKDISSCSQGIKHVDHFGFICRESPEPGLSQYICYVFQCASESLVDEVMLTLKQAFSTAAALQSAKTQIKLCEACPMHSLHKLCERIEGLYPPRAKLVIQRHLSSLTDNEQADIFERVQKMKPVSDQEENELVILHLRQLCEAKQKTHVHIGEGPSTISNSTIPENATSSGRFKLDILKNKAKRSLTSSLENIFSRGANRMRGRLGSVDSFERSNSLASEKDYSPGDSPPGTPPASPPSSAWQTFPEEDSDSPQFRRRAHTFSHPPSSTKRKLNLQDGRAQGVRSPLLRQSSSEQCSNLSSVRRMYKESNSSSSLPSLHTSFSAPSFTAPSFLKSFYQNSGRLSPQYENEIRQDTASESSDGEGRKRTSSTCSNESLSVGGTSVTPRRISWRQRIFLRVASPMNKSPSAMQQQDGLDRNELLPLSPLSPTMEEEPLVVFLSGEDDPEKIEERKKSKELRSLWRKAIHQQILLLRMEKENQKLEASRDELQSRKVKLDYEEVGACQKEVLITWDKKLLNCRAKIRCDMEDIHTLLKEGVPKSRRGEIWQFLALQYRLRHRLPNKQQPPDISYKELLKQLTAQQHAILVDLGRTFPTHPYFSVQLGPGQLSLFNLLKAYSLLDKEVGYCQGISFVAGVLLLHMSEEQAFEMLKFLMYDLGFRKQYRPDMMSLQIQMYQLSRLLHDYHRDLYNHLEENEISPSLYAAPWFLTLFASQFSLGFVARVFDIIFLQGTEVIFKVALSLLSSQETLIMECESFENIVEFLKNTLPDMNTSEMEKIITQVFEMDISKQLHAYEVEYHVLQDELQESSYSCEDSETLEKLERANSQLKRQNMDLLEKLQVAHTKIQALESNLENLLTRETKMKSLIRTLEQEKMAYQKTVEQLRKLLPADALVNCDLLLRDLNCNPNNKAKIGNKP
UniProt Q9BSL1: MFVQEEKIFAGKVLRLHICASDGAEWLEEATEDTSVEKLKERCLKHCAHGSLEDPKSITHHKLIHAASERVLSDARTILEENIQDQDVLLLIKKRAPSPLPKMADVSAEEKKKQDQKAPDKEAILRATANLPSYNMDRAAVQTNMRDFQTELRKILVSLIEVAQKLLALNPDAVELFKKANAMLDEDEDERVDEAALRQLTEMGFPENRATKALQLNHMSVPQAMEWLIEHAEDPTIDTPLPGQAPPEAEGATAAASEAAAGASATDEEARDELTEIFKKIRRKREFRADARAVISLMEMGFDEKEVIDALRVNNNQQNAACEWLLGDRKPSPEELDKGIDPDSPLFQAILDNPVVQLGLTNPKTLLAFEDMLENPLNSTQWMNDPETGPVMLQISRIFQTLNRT
UniProt P10599: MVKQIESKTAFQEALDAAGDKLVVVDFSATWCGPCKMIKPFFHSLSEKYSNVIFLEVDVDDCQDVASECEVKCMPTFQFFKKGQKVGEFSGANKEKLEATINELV
UniProt Q9NVH6: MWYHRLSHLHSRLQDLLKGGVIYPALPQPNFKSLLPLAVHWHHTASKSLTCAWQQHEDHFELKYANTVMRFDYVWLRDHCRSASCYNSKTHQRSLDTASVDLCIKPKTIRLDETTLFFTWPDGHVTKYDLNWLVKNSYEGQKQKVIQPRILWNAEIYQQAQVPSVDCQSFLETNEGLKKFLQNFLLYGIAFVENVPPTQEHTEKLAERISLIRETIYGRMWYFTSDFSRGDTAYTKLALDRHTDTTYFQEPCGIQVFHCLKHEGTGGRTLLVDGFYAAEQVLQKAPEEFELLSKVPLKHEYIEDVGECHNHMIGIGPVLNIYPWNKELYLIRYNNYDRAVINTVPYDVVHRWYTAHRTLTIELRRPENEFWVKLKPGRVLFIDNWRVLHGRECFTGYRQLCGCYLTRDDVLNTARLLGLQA
UniProt Q8TBC4: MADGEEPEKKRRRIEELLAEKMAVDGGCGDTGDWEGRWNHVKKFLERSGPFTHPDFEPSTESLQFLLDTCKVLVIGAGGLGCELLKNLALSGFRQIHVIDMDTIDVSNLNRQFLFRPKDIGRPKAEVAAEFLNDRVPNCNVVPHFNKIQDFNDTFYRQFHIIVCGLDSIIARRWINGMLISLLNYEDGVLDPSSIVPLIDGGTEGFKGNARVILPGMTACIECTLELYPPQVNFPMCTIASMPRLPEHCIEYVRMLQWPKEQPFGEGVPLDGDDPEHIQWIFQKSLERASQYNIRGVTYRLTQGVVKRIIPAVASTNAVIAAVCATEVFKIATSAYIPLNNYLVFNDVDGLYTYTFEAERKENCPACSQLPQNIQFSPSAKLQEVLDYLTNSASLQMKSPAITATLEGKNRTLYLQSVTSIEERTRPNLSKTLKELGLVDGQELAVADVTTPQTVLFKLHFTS
UniProt P62072: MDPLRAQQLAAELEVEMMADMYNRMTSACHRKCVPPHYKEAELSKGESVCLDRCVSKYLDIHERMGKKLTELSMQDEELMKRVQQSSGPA
UniProt Q9NUQ3: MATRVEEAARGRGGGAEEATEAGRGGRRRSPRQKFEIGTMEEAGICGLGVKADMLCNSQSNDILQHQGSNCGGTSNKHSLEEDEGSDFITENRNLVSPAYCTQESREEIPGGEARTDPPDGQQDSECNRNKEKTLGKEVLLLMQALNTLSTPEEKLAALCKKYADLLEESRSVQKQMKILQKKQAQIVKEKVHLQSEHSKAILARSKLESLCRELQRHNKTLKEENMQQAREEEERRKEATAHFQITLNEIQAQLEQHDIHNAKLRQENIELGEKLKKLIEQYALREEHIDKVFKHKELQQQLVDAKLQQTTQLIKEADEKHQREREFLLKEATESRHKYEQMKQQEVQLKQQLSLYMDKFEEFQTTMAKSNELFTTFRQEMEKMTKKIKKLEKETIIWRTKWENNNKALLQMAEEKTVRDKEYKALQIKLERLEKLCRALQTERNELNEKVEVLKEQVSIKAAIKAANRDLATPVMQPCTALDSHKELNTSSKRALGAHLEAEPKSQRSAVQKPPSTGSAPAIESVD
UniProt Q9BU02: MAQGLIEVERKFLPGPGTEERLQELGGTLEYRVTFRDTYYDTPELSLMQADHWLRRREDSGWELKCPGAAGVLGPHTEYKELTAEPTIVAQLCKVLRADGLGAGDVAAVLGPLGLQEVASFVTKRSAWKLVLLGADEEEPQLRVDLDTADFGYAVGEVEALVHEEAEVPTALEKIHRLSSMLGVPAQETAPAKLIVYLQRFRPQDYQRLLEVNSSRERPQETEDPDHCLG
UniProt P09493, whole entry: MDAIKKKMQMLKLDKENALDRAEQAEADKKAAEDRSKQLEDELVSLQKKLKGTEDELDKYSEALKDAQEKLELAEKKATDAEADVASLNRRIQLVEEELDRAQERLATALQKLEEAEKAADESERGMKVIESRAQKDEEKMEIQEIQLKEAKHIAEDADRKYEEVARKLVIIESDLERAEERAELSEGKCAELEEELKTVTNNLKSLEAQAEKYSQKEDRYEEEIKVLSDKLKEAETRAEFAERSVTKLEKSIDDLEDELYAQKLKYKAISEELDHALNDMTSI
UniProt Q99816: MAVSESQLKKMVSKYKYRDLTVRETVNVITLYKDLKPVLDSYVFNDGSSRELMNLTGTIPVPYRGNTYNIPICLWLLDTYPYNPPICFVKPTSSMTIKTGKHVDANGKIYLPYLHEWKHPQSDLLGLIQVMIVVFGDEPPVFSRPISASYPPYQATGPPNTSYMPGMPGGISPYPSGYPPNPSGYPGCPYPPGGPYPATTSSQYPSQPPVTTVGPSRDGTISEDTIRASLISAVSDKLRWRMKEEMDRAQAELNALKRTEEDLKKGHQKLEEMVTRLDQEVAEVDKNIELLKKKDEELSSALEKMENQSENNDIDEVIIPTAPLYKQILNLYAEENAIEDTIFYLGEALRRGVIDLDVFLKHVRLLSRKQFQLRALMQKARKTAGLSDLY
UniProt Q92844: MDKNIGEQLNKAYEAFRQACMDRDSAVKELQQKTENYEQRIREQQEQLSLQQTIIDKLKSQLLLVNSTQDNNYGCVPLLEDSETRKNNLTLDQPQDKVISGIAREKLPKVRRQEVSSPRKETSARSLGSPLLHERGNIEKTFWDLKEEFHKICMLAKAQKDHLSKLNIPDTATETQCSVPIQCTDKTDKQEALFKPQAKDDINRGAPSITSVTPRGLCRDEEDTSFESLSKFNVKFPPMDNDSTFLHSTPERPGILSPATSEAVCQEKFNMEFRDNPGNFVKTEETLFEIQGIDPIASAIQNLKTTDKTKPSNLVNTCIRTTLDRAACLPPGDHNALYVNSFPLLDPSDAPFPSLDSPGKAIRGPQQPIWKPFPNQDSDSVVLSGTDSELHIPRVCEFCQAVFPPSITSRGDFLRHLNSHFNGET
UniProt Q9HA65: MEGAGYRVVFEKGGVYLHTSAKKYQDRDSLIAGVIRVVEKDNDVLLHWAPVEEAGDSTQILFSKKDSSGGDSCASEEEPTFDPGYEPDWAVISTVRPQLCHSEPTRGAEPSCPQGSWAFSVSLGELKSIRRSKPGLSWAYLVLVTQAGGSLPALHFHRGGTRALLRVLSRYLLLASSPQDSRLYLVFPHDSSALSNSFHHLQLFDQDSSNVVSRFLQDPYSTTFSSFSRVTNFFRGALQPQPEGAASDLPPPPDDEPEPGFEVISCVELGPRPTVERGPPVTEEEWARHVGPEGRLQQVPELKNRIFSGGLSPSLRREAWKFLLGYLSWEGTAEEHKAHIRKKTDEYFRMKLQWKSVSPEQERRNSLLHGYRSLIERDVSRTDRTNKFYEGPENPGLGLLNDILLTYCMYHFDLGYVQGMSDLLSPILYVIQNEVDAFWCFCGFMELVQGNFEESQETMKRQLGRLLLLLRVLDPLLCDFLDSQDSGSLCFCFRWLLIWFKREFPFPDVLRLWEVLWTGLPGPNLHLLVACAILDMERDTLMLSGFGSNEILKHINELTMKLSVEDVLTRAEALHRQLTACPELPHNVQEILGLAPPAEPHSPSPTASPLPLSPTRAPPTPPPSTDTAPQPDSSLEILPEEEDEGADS
UniProt Q04724: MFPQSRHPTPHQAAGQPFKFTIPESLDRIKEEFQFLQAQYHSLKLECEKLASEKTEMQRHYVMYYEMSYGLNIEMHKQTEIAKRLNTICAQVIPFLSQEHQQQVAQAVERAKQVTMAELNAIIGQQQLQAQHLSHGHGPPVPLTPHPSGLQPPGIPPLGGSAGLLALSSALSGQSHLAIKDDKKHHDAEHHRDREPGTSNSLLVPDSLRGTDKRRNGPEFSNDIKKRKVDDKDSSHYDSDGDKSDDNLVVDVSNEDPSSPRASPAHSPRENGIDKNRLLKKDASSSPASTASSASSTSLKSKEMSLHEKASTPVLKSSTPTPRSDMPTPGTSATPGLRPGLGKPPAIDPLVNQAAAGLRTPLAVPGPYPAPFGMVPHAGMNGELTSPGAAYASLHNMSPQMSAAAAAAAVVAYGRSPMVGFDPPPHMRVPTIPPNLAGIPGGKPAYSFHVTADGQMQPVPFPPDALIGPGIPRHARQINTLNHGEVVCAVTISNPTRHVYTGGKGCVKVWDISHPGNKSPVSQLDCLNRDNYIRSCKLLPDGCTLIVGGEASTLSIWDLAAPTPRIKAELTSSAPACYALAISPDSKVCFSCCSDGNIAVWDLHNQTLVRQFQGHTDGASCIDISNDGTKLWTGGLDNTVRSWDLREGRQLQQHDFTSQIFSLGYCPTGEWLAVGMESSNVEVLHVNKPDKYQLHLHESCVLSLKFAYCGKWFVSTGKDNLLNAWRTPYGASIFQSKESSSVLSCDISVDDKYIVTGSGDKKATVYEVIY

Compound: Nc1nc2c(ncn2[C@@H]2O[C@H](COP(=O)(O)OP(=O)(O)OP(=O)(O)O)[C@@H](O)[C@H]2O)c(=O)[nH]1
Assay: dose-dependent thermal stabilisation call (2D-TPP, DLPTP, 10% FDR) (binary (1 = stabilised)); higher = stabilised by the compound
Conditions: system: Jurkat gel-filtered lysate; concentration range 1-500 µM
Protocol: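 2D thermal proteome profiling in gel-filtered Jurkat E6.1 lysate (2 mg/ml) treated with NaGTP (0, 1, 10, 100, 500 uM) for 10 min at room temperature, then heated 3 min at one of 12 temperatures (42-63.9 C). Soluble protein was quantified by TMT10 MS. The value is the DLPTP call of the paper: dose-dependent thermal stabilisation over all temperatures at 10% FDR (F-test of a dose-response against a flat model); one experiment, one call per tested protein.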

| Target | dose-dependent thermal stabilisation call |
| --- | --- |
| TUBA1C (UniProt Q9BQE3) | active: 1 |
| TOLLIP (UniProt Q9H0E2) | inactive: 0 |
| TBC1D4 (UniProt O60343) | inactive: 0 |
| TPR (UniProt P12270) | inactive: 0 |
| UBAC1 (UniProt Q9BSL1) | inactive: 0 |
| TRNAU1AP (UniProt Q9NX07) | inactive: 0 |
| TPT1 (UniProt P13693) | inactive: 0 |
| TXN (UniProt P10599) | inactive: 0 |
| TRRAP (UniProt Q9Y4A5) | inactive: 0 |
| TMLHE (UniProt Q9NVH6) | inactive: 0 |
| TARBP2 (UniProt Q15633) | inactive: 0 |
| TMCO6 (UniProt Q96DC7) | active: 1 |
| TRIM5 (UniProt Q9C035) | inactive: 0 |
| TBCE (UniProt Q15813) | active: 1 |
| UBA3 (UniProt Q8TBC4) | inactive: 0 |
| TIMM10 (UniProt P62072) | inactive: 0 |
| TBC1D1 (UniProt Q86TI0) | inactive: 0 |
| TXLNG (UniProt Q9NUQ3) | inactive: 0 |
| TFRC (UniProt P02786) | active: 1 |
| TLN1 (UniProt Q9Y490) | inactive: 0 |

Some of the entries so far, tab-delimited:
Target	dose-dependent thermal stabilisation call
TPR (UniProt P12270)	inactive: 0
UBAC1 (UniProt Q9BSL1)	inactive: 0

Remaining list, next part

| Target | dose-dependent thermal stabilisation call |
| --- | --- |
| TTPAL (UniProt Q9BTX7) | inactive: 0 |
| TLE4 (UniProt Q04727) | inactive: 0 |
| THTPA (UniProt Q9BU02) | inactive: 0 |
| UAP1 (UniProt Q16222) | inactive: 0 |
| THOC7 (UniProt Q6I9Y2) | inactive: 0 |
| TDG (UniProt Q13569) | active: 1 |
| TTC9C (UniProt Q8N5M4) | inactive: 0 |
| UBA2 (UniProt Q9UBT2) | inactive: 0 |
| TPM1 (UniProt P09493) | inactive: 0 |
| TBC1D7 (UniProt Q9P0N9) | inactive: 0 |
| UBA7 (UniProt P41226) | inactive: 0 |
| UBAP2L (UniProt Q14157) | inactive: 0 |
| TPM3 (UniProt P06753) | inactive: 0 |
| TSG101 (UniProt Q99816) | inactive: 0 |
| TANK (UniProt Q92844) | inactive: 0 |
| TEX30 (UniProt Q5JUR7) | inactive: 0 |
| TBC1D17 (UniProt Q9HA65) | inactive: 0 |
| TLE1 (UniProt Q04724) | inactive: 0 |
| TRIM44 (UniProt Q96DX7) | inactive: 0 |
| TBCK (UniProt Q8TEA7) | inactive: 0 |
